Experimental data as given in patent US8410045B2, “Camptothecin-peptide conjugates and pharmaceutical compositions containing the same” (Drais Pharmaceuticals, Inc., priority 2006, dated 2013).
Structures can show the parent of a compound that is named as a salt.

Columns and labels:
NCI-H460 lung carcinoma = assay: Antitumor efficacy in NCI-H460 lung carcinoma model in nude mice; details: for Day when minimal T/C is reached: Table 7, i.v. Q2D3 × 3 W
[1] = test system: LS 174T human colorectal carcinoma tumor; assay: Antitumor efficacy in human LS 174T xenograft colon tumor model implanted in nude rats; type: in vivo; details: Table 7
Protocol: The LS 174T study was performed using female nude rats (8 weeks old) purchased from Harlan breeding center (Gannat, France). LS 174T tumors were established by a subcutaneously implantation of cell (ATCC Number: CCl-188) suspensions in the right flank of the animals. The first injection of drugs was performed when the tumors reached a size of about 1000 mm^3. The tumor volume was calculated using the following formula: [length×width^2]/2.

[2] = test system: HT-29 colorectal carcinoma; assay: Antitumor efficacy in HT-29 colorectal carcinoma model in nude mice; type: in vivo; details: Table 7
[3] = test system: MDA-MB-231 mammary carcinoma; assay: Antitumor efficacy in MDA-MB-231 mammary carcinoma model in nude mice; type: in vivo; details: Table 7, i.v. Q2D3 × 3 W

| Structure (SMILES) | In vivo efficacy Optimal T/C (NCI-H460 lung carcinoma; Table 9, 25 μmol/kg) [days] | Day when minimal T/C is reached ([1]; i.v. Q4D × 5, 10 μmol/kg) [days] | Day when minimal T/C is reached ([1]; i.v. Q4D × 5, 20 μmol/kg) [days] | Day when minimal T/C is reached ([2]; i.v. Q4D × 3, 12.5 μmol/kg) [days] | Day when minimal T/C is reached ([2]; i.v. Q4D × 3, 25 μmol/kg) [days] | Day when minimal T/C is reached ([3]; 12.5 μmol/kg) [days] | Day when minimal T/C is reached ([3]; 25 μmol/kg) [days] | Day when minimal T/C is reached (NCI-H460 lung carcinoma; 12.5 μmol/kg) [days] | Day when minimal T/C is reached (NCI-H460 lung carcinoma; 25 μmol/kg) [days] |
| --- | --- | --- | --- | --- | --- | --- | --- | --- | --- |
| CCc1c2c(nc3ccc(OC(=O)[C@H]4CC[C@H](CNC(=O)C5CCC(CN6C(=O)CC(SC[C@H](N)C(=O)N[C@H](C(=O)N[C@@H](CCCCN)C(=O)N[C@@H](CCCNC(=N)N)C(=O)NCC(=O)N[C@@H](CC(C)C)C(=O)N[C@@H](CCCCN)C(=O)N[C@@H](CC(C)C)C(=O)N[C@@H](CCCNC(=N)N)C(=O)N[C@@H](Cc7c[nH]cn7)C(=O)N[C@H](C(=O)N[C@@H](CCCNC(=N)N)C(=O)N7CCC[C@H]7C(=O)N[C@@H](CCCNC(=N)N)C(=O)N[C@H](C(=O)N[C@H](C(=O)N[C@@H](CCCNC(=N)N)C(=O)N[C@@H](CCSC)C(=O)N[C@@H](CC(=O)O)C(=O)N[C@H](C(=O)O)C(C)C)[C@@H](C)O)C(C)C)C(C)C)C(C)C)C6=O)CC5)CC4)cc13)-c1cc3c(c(=O)n1C2)COC(=O)[C@]3(O)CC (single isomer, unassigned) [DPV1047-BCH-SN38•HCl] | 24 |  |  |  |  |  |  |  |  |
| CCc1c2c(nc3ccc(OC(=O)[C@H]4CC[C@H](CNC(=O)C5CCC(CN6C(=O)CC(SC[C@H](N)C(=O)N[C@H](C(=O)N[C@@H](CCCCN)C(=O)N[C@@H](CCCNC(=N)N)C(=O)NCC(=O)N[C@@H](CC(C)C)C(=O)N[C@@H](CCCCN)C(=O)N[C@@H](CC(C)C)C(=O)N[C@@H](CCCNC(=N)N)C(=O)N[C@@H](Cc7c[nH]cn7)C(=O)N[C@H](C(=O)N[C@@H](CCCNC(=N)N)C(=O)N7CCC[C@H]7C(=O)N[C@@H](CCCNC(=N)N)C(=O)N[C@H](C(=O)N[C@H](C(=O)N[C@@H](CCCNC(=N)N)C(=O)N[C@@H](CCSC)C(=O)N[C@@H](CC(=O)O)C(=O)N[C@H](C(=O)O)C(C)C)[C@@H](C)O)C(C)C)C(C)C)C(C)C)C6=O)CC5)CC4)cc13)-c1cc3c(c(=O)n1C2)COC(=O)[C@]3(O)CC (single isomer, unassigned) [DPV1047-BCH-SN38] |  | 35 | 35 | 38 | 31 | 58 | 51 | 24 | 24 |
